Ends that are not written are not given here. * marks the point of attachment. Cbz = O=C(OCc1ccccc1)*; Boc = CC(C)(C)OC(=O)*; OBn = c1ccc(CO*)cc1; Bn = c1ccc(C*)cc1

The first data set in a line: peptide synthesis. As to conditions: coupling step.
For Ac-S(Bn)D(OBn)AA-OH, the step yield came to 65.6%.
In turn, Boc-E(OBn)VVE(OBn)E(OBn)AE(OBn)N-OBn displayed a step yield of 58.7%.
Substance Ac-S(Bn)NAA-OBn gave a step yield of 56.9%.
On the same count and under the same terms, for “Boc-VD(OBn)T(Bn)S(Bn)S(Bn)E(OBn)IT(Bn)T(Bn)K(Cbz)-OH” the value was 81.7%.
Still for that read-out and setting: for “Ac-S(Bn)NAAVD(OBn)T(Bn)S(Bn)S(Bn)E(OBn)IT(Bn)T(Bn)K(Cbz)-OH” the value was 42.0%.
On the same count and under the same terms, to Boc-D(OBn)T(Bn)S(Bn)S(Bn)E(OBn)-OH belongs 82.7%; to “Boc-Asp(OBzl)-Leu-Lys(Z)-Glu(OBzl)-Lys(Z)-Lys(Z)-Glu(OBzl)-Val-Val-Glu(OBzl)-Gl(OBzl)-Ala-Glu(OBzl)-Asn-OBzl”, 80.2%; to “Ac-S(Bn)D(OBn)AAVD(OBn)T(Bn)S(Bn)S(Bn)E(OBn)IT(Bn)T(Bn)K(Cbz)-OH”, 85.37%.
Boc-VD(OBn)T(Bn)S(Bn)S(Bn)E(OBn)-OH had a step yield of 51.4%.
“Boc-E(OBn)K(Cbz)K(Cbz)E(OBn)VVE(OBn)E(OBn)AE(OBn)N-OBn” had a step yield of 68.3%.
Same read-out and setting: for Boc-E(OBn)E(OBn)AE(OBn)N-OBn the value was 59.8%.
Still for that read-out and setting: to Boc-IT(Bn)T(Bn)K(Cbz)-OH belongs 41.2%; to Boc-T(Bn)S(Bn)S(Bn)E(OBn)-OH, 78.1%.

The same data set, now with this note: late stage modification step.
Take Ac-Ser-Asp-Ala-Ala-OH: the step yield is reported as 86.3%.
Still for that read-out and setting: for Ac-Ser(Bzl)-Asn-Ala-Ala-HNNH2 the value was 89.6%.
The same measure, in the same setting: to EKKEVVEEAEN belongs 42.1%.
On to Ac-Ser(Bzl)-Asp(OBzl)-Ala-Ala-HNNH2, for which the step yield was 61.0%.
The same measure, in the same setting: to EVVEEAEN belongs 48.1%; to Boc-Ser(Bzl)-Asp(OBzl)-Ala-Ala-HNNH2, 23.1%.
The same measure, in the same setting: to “HCl.H-Glu(OBzl)-Glu(OBzl)-Ala-Glu(OBzl)-Asn-OBzl” belongs 75.1%; to “Boc-Val-Asp(OBzl)-Thr(Bzl)-Ser(Bzl)-Ser(Bzl)-Glu(OBzl)-HNNH2”, 66.4%; to Ac-Ser-Asn-Ala-Ala-OH, 72.2%.
On the same count and under the same terms, to DLKEKKEVVEEAEN belongs 22%.

A further data set can be described thus: Boc solid-phase peptide synthesis; benzhydrylamine resin; dicyclohexylcarbodiimide (DCC); DCC/HOSu, DCC/HOBT and azide coupling in solutio. The conditions noted are these: whole synthesis.
The substance Ac-SDAAVDTSSEITTKDLKEKKEVVEEAEN displayed a crude mass of 127 mg and an isolated mass of 34 mg.

Still in this data set, the particulars now being: whole synthesis, overall, based on the aspartic acid content of the resin, scale of the general procedure 2.5 g, 0.74 m mol.
Turning to Ac-SDAAVDTSSEITTKDLKEKKEVVEEAEN, the isolated yield was determined as 6.74%.

Values taken from US4148788 (dated 1979).
